PubChem BioAssay AID1259308 – NCATS, 2017
In all, the deposit lists about 59,000 reagents; shown is an unselected part. Over the whole deposit, about 1,510 (2.6%) were called active. 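Calls use total luciferase alone and ignore viability, so some active siRNAs may act by altering cell number.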 Reagents against one gene are numbered here. No sequences are given here.

- Test: 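Candidate targets for better recombinant protein yield in mammalian cells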 (primary screen)
- Cell system: human HEK293 embryonic kidney cells stably expressing firefly luciferase (HEK-CMV-Luc2-Hygro)
- Knock-down reagent: single siRNA against human genes, 0.8 pmol siRNA per well
- Duration: 72 h
- Measured: 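Reporter luminescence and viable-cell signal on separate replicate plates, given as percent of non-targeting control and median/MAD z-scores, plus per-cell luciferase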
- Reading the numbers: total luciferase, z-score and total luciferase, % of control: higher = more reporter protein produced; luciferase per cell, z-score: higher = more reporter output per viable cell; viable cells, % of control: higher = more viable cells
- Hit rule: 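An siRNA counts as active if its total luciferase robust z-score exceeds 3; genes with two or more such siRNAs out of three were retested with fresh siRNAs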
- Calls: active = raised luciferase; inactive = no rise

target gene | siRNA no. | total luciferase, z-score | total luciferase, % of control | luciferase per cell, z-score | viable cells, % of control | Outcome
LINC02363 | 1 | -0.0776 | 80.3 | 0.0662 | 88.2 | inactive
LINC02363 | 2 | -0.379 | 74.4 | -0.518 | 95.2 | inactive
LINC02363 | 3 | 0.424 | 90.3 | -0.474 | 114 | inactive
TEX19 | 1 | -0.519 | 71.6 | 0.258 | 74.7 | inactive
TEX19 | 2 | 0.986 | 101 | 0.878 | 90 | inactive
TEX19 | 3 | -1.1 | 60 | -0.862 | 84.2 | inactive
ZNF14 | 1 | 0.133 | 84.5 | 0.248 | 88.5 | inactive
ZNF14 | 2 | -0.677 | 68.4 | 0.769 | 62.4 | inactive
ZNF14 | 3 | 1.3 | 108 | 0.753 | 98.7 | inactive
BCL2L1 | 1 | -0.607 | 69.8 | -0.769 | 95.5 | inactive
BCL2L1 | 2 | 1.91 | 120 | 1.74 | 84.8 | inactive
BCL2L1 | 3 | 0.365 | 89.1 | 0.316 | 91.7 | inactive
HACD1 | 1 | 0.718 | 96.2 | 0.163 | 103 | inactive
HACD1 | 2 | -0.911 | 63.8 | -1.54 | 107 | inactive
HACD1 | 3 | 1.33 | 108 | 1.06 | 91.5 | inactive
PDE6G | 1 | -0.0654 | 80.6 | -0.882 | 114 | inactive
PDE6G | 2 | -1.88 | 44.4 | -1.29 | 69.7 | inactive
PDE6G | 3 | 0 | 81.9 | -0.0449 | 92.6 | inactive
CSTF3-DT | 1 | -0.657 | 68.8 | -0.958 | 99 | inactive
CSTF3-DT | 2 | 2.64 | 134 | 1.84 | 92.6 | inactive
CSTF3-DT | 3 | 1.86 | 119 | 0.543 | 115 | inactive
MBD3L1 | 1 | 0.448 | 90.8 | 0.734 | 83.6 | inactive
MBD3L1 | 2 | -0.0588 | 80.7 | -0.67 | 108 | inactive
MBD3L1 | 3 | -0.866 | 64.7 | -1.1 | 96.6 | inactive
SYT14P1 | 1 | 5.55 | 192 | 3.61 | 83 | active
SYT14P1 | 2 | -0.221 | 77.5 | -0.607 | 102 | inactive
SYT14P1 | 3 | -0.983 | 62.3 | -1.03 | 91.4 | inactive
COL26A1 | 1 | 0.447 | 90.8 | 0.161 | 97.2 | inactive
COL26A1 | 2 | 0.994 | 102 | 0.574 | 97.7 | inactive
COL26A1 | 3 | -0.382 | 74.3 | 0.103 | 80.8 | inactive
OCM | 1 | 0.134 | 84.6 | -0.0249 | 95.1 | inactive
OCM | 2 | 2.97 | 141 | 2.84 | 74.6 | inactive
OCM | 3 | -0.399 | 73.9 | 0.191 | 78.6 | inactive
RBBP7 | 1 | -0.526 | 71.4 | -0.914 | 102 | inactive
RBBP7 | 2 | -0.119 | 79.5 | 0.67 | 74.5 | inactive
RBBP7 | 3 | -0.278 | 76.4 | -0.738 | 104 | inactive
CFAP119 | 1 | -1.98 | 42.4 | 1.39 | 32.9 | inactive
CFAP119 | 2 | -0.202 | 77.9 | 0.537 | 75.5 | inactive
CFAP119 | 3 | -0.672 | 68.5 | -1.03 | 100 | inactive
CHRM2 | 1 | 0.000483 | 81.9 | -0.0631 | 93 | inactive
CHRM2 | 2 | 0.14 | 84.7 | 0.0577 | 93.2 | inactive
CHRM2 | 3 | -1.06 | 60.9 | -0.0631 | 69.2 | inactive
NRF1 | 1 | -0.757 | 66.8 | -0.648 | 88.6 | inactive
NRF1 | 2 | -0.146 | 79 | -0.744 | 107 | inactive
NRF1 | 3 | -0.903 | 63.9 | -1.09 | 95.2 | inactive
NEMF | 1 | 2.5 | 132 | 3.11 | 64.9 | inactive
NEMF | 2 | -0.831 | 65.4 | -0.444 | 82.1 | inactive
NEMF | 3 | -1.33 | 55.4 | -0.951 | 79.6 | inactive
CEP126 | 1 | -1.22 | 57.6 | -1.21 | 88.6 | inactive
CEP126 | 2 | 0.144 | 84.7 | -0.336 | 103 | inactive
CEP126 | 3 | 0.155 | 85 | 0.229 | 89.4 | inactive
DRAM2 | 1 | -0.126 | 79.4 | -0.437 | 99.5 | inactive
DRAM2 | 2 | 0.296 | 87.8 | 0.12 | 95 | inactive
DRAM2 | 3 | 0.11 | 84.1 | -0.809 | 116 | inactive
PGRMC1 | 1 | 0.198 | 85.8 | -0.626 | 113 | inactive
PGRMC1 | 2 | 0.673 | 95.3 | -0.3 | 115 | inactive
PGRMC1 | 3 | 0.0327 | 82.5 | -0.376 | 102 | inactive

9 of these entries, set out differently.
{"target gene": "PDE6G", "siRNA no.": 1, "total luciferase, z-score": -0.0654, "total luciferase, % of control": 80.6, "luciferase per cell, z-score": -0.882, "viable cells, % of control": 114, "Outcome": "inactive"}
{"target gene": "PDE6G", "siRNA no.": 2, "total luciferase, z-score": -1.88, "total luciferase, % of control": 44.4, "luciferase per cell, z-score": -1.29, "viable cells, % of control": 69.7, "Outcome": "inactive"}
{"target gene": "PDE6G", "siRNA no.": 3, "total luciferase, z-score": 0, "total luciferase, % of control": 81.9, "luciferase per cell, z-score": -0.0449, "viable cells, % of control": 92.6, "Outcome": "inactive"}
{"target gene": "CSTF3-DT", "siRNA no.": 1, "total luciferase, z-score": -0.657, "total luciferase, % of control": 68.8, "luciferase per cell, z-score": -0.958, "viable cells, % of control": 99, "Outcome": "inactive"}
{"target gene": "CSTF3-DT", "siRNA no.": 2, "total luciferase, z-score": 2.64, "total luciferase, % of control": 134, "luciferase per cell, z-score": 1.84, "viable cells, % of control": 92.6, "Outcome": "inactive"}
{"target gene": "CSTF3-DT", "siRNA no.": 3, "total luciferase, z-score": 1.86, "total luciferase, % of control": 119, "luciferase per cell, z-score": 0.543, "viable cells, % of control": 115, "Outcome": "inactive"}
{"target gene": "MBD3L1", "siRNA no.": 1, "total luciferase, z-score": 0.448, "total luciferase, % of control": 90.8, "luciferase per cell, z-score": 0.734, "viable cells, % of control": 83.6, "Outcome": "inactive"}
{"target gene": "MBD3L1", "siRNA no.": 2, "total luciferase, z-score": -0.0588, "total luciferase, % of control": 80.7, "luciferase per cell, z-score": -0.67, "viable cells, % of control": 108, "Outcome": "inactive"}
{"target gene": "MBD3L1", "siRNA no.": 3, "total luciferase, z-score": -0.866, "total luciferase, % of control": 64.7, "luciferase per cell, z-score": -1.1, "viable cells, % of control": 96.6, "Outcome": "inactive"}
